Consider one molecule from paper PMC4718636.

No constants are given. Whether binding was seen depends on the method and setting. Some results given as binding are weak or reduced against the parent protein; the word gives no strength. Sequences can lack the tags named with a protein.

The target of the test is GST-hAgo2 (human Argonaute2) (human), Q9UKV8. In words: pull-down; pulldown assays shown only in Figure I of the S1 Supporting Information File; format not given; both purified. The conditions noted are these: remark: other sources report otherwise.

B1: His-hTRBP (human TAR RNA-binding protein), purified under native conditions, Q15633 1-366 (protein)
chain: MSEEEQGSGTTTGCGLPSIEQMLAANPGKTPISLLQEYGTRIGKTPVYDLLKAEGQAHQPNFTFRVTVGDTSCTGQGPSKKAAKHKAAEVALKHLKGGSMLEPALEDSSSFSPLDSSLPEDIPVFTAAAAATPVPSVVLTRSPPMELQPPVSPQQSECNPVGALQELVVQKGWRLPEYTVTQESGPAHRKEFTMTCRVERFIEIGSGTSKKLAKRNAAAKMLLRVHTVPLDARDGNEVEPDDDHFSIGVGSRLDGLRNRGPGCTWDSLRNSVGEKILSLRSCSLGSLGALGPACCRVLSELSEEQAFHVSYLDIEELSLSGLCQCLVELSTQPATVCHGSATTREAARGEAARRALQYLKIMAGSK
Turning to B1, the binding result is “binds”.
